These are yes or no findings as the source states them, for the method shown. In cells and extracts the contact can be indirect. Sequences can lack the tags named with a protein.
Target: T1, Vipp1–GFP (Synechocystis Vipp1 tagged with green fluorescent protein at the C-terminus) (Synechocystis sp. PCC6803) (UniProt Q55707)
T1 sequence: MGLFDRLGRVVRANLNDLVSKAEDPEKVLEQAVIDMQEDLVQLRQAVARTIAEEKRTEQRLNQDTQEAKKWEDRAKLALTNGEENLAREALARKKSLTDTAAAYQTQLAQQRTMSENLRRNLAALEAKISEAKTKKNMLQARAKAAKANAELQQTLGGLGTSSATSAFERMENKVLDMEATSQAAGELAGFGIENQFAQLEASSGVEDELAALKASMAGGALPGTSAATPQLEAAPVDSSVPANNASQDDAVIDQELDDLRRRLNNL
Test: co-IP; anti-GFP microbeads (μMACS column) on lysates of HL-treated Synechocystis vipp1–gfp, futA1–gfp and wild-type cells; GFP affinity-bound fraction immunoblotted

Q: How did the binding turn out when Slr1768 protein was run?
A: no binding
